We go through four molecules from publication PMC8807037.

Test [1] deals with T1, His-tagged Golgi membrane protein 1 (GOLM1) (human (cloned from SKOV3)) (UniProt Q8NBJ4).
T1 sequence: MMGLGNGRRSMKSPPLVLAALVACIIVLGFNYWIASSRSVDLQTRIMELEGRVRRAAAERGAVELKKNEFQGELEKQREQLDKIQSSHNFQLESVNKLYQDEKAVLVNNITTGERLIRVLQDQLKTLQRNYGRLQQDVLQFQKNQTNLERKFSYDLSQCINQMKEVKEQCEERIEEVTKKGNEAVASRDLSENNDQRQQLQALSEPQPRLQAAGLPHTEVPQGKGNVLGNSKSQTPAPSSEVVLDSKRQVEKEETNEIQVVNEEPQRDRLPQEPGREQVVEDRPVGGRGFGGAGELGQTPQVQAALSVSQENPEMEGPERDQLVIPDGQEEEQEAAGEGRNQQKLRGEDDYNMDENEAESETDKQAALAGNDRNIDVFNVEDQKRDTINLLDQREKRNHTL
Briefly: co-IP; 293T cells cotransfected with His-GOLM1 and Flag-B7-H3; lysis in RIPA (150 mM NaCl, 50 mM Tris pH 7.6); primary antibody or IgG overnight at 4°C, protein A/G Sepharose beads; western blotting; reciprocal co-IP.

For test [2], the target named is T2, Golgi membrane protein 1 (GOLM1), endogenous in SKOV3 (human (endogenous in SKOV3)) (UniProt Q8NBJ4).
T2 sequence: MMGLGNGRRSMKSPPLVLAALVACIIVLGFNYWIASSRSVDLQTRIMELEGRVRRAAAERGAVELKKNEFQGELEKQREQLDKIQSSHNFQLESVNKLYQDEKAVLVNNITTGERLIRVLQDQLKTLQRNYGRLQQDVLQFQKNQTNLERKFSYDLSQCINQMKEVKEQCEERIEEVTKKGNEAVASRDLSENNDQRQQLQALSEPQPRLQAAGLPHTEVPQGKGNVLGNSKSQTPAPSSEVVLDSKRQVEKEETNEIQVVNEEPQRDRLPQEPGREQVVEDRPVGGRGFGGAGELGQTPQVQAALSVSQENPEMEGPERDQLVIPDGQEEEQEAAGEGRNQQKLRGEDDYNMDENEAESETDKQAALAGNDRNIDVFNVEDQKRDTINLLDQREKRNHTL
Nature of the test: co-IP; endogenous proteins in SKOV3 lysate; lysis in RIPA (150 mM NaCl, 50 mM Tris pH 7.6); IP with anti-GOLM1 or anti-B7-H3 antibody overnight at 4°C, protein A/G Sepharose beads; western blotting for the other protein.

Test [3] addresses T3, FLAG-tagged B7-H3 (human) (UniProt Q5ZPR3).
T3 sequence: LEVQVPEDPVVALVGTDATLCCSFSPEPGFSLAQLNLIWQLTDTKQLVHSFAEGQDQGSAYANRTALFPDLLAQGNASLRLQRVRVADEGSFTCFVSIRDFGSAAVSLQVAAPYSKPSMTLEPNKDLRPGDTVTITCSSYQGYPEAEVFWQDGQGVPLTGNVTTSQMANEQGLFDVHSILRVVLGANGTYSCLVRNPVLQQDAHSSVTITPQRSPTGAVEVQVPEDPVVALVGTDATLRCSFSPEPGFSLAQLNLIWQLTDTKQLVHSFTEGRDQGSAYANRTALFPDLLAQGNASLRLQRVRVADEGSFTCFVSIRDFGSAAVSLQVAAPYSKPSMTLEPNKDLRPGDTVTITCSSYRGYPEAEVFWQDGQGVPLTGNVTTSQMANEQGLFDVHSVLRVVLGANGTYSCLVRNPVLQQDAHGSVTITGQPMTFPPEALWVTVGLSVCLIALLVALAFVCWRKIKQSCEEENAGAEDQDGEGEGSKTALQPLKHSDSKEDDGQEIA
Nature of the test: co-IP; 293T cells cotransfected with His-GOLM1 and Flag-B7-H3; lysis in RIPA (150 mM NaCl, 50 mM Tris pH 7.6); primary antibody or IgG overnight at 4°C, protein A/G Sepharose beads; western blotting; reciprocal co-IP.

Test [4] deals with T4, B7-H3, endogenous in SKOV3 (human (endogenous in SKOV3)) (UniProt Q5ZPR3).
T4 sequence: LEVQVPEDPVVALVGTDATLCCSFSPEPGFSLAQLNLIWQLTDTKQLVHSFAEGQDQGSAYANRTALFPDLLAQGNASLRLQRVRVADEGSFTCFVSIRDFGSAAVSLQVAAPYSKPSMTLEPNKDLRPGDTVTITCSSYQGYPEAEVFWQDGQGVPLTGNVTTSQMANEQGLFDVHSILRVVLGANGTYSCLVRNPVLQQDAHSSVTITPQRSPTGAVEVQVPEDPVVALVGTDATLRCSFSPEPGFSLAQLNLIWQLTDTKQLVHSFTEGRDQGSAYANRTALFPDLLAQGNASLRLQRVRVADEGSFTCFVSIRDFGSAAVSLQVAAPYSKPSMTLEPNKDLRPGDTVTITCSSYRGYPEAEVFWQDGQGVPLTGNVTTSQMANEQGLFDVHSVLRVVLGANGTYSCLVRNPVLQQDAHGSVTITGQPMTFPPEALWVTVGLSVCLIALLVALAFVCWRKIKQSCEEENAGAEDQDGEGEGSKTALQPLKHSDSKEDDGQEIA
Nature of the test: co-IP; endogenous proteins in SKOV3 lysate; lysis in RIPA (150 mM NaCl, 50 mM Tris pH 7.6); IP with anti-GOLM1 or anti-B7-H3 antibody overnight at 4°C, protein A/G Sepharose beads; western blotting for the other protein.

Results are given in words; binding and its absence hold for the method and conditions named. Binding seen in cells or lysates may run through a third protein. Some binding calls cover weakened binding; strength is not graded here. For some of these results: Where a sequence is shown, tags or fusion partners need not be part of it.

B1: FLAG-tagged B7-H3 (protein, UniProt Q5ZPR3 29-534)
chain: LEVQVPEDPVVALVGTDATLCCSFSPEPGFSLAQLNLIWQLTDTKQLVHSFAEGQDQGSAYANRTALFPDLLAQGNASLRLQRVRVADEGSFTCFVSIRDFGSAAVSLQVAAPYSKPSMTLEPNKDLRPGDTVTITCSSYQGYPEAEVFWQDGQGVPLTGNVTTSQMANEQGLFDVHSILRVVLGANGTYSCLVRNPVLQQDAHSSVTITPQRSPTGAVEVQVPEDPVVALVGTDATLRCSFSPEPGFSLAQLNLIWQLTDTKQLVHSFTEGRDQGSAYANRTALFPDLLAQGNASLRLQRVRVADEGSFTCFVSIRDFGSAAVSLQVAAPYSKPSMTLEPNKDLRPGDTVTITCSSYRGYPEAEVFWQDGQGVPLTGNVTTSQMANEQGLFDVHSVLRVVLGANGTYSCLVRNPVLQQDAHGSVTITGQPMTFPPEALWVTVGLSVCLIALLVALAFVCWRKIKQSCEEENAGAEDQDGEGEGSKTALQPLKHSDSKEDDGQEIA
With B1, in test [1], the binding result is “binds”.

B2: B7-H3, endogenous in SKOV3 (protein, UniProt Q5ZPR3 29-534)
chain: LEVQVPEDPVVALVGTDATLCCSFSPEPGFSLAQLNLIWQLTDTKQLVHSFAEGQDQGSAYANRTALFPDLLAQGNASLRLQRVRVADEGSFTCFVSIRDFGSAAVSLQVAAPYSKPSMTLEPNKDLRPGDTVTITCSSYQGYPEAEVFWQDGQGVPLTGNVTTSQMANEQGLFDVHSILRVVLGANGTYSCLVRNPVLQQDAHSSVTITPQRSPTGAVEVQVPEDPVVALVGTDATLRCSFSPEPGFSLAQLNLIWQLTDTKQLVHSFTEGRDQGSAYANRTALFPDLLAQGNASLRLQRVRVADEGSFTCFVSIRDFGSAAVSLQVAAPYSKPSMTLEPNKDLRPGDTVTITCSSYRGYPEAEVFWQDGQGVPLTGNVTTSQMANEQGLFDVHSVLRVVLGANGTYSCLVRNPVLQQDAHGSVTITGQPMTFPPEALWVTVGLSVCLIALLVALAFVCWRKIKQSCEEENAGAEDQDGEGEGSKTALQPLKHSDSKEDDGQEIA
B2: in test [2], the binding entry is recorded as “binds”.

B3: His-tagged Golgi membrane protein 1 (GOLM1) (protein, UniProt Q8NBJ4 1-401)
chain: MMGLGNGRRSMKSPPLVLAALVACIIVLGFNYWIASSRSVDLQTRIMELEGRVRRAAAERGAVELKKNEFQGELEKQREQLDKIQSSHNFQLESVNKLYQDEKAVLVNNITTGERLIRVLQDQLKTLQRNYGRLQQDVLQFQKNQTNLERKFSYDLSQCINQMKEVKEQCEERIEEVTKKGNEAVASRDLSENNDQRQQLQALSEPQPRLQAAGLPHTEVPQGKGNVLGNSKSQTPAPSSEVVLDSKRQVEKEETNEIQVVNEEPQRDRLPQEPGREQVVEDRPVGGRGFGGAGELGQTPQVQAALSVSQENPEMEGPERDQLVIPDGQEEEQEAAGEGRNQQKLRGEDDYNMDENEAESETDKQAALAGNDRNIDVFNVEDQKRDTINLLDQREKRNHTL
B3: the binding result in test [3] is recorded as “binds”.

B4: Golgi membrane protein 1 (GOLM1), endogenous in SKOV3 (protein, UniProt Q8NBJ4 1-401)
chain: MMGLGNGRRSMKSPPLVLAALVACIIVLGFNYWIASSRSVDLQTRIMELEGRVRRAAAERGAVELKKNEFQGELEKQREQLDKIQSSHNFQLESVNKLYQDEKAVLVNNITTGERLIRVLQDQLKTLQRNYGRLQQDVLQFQKNQTNLERKFSYDLSQCINQMKEVKEQCEERIEEVTKKGNEAVASRDLSENNDQRQQLQALSEPQPRLQAAGLPHTEVPQGKGNVLGNSKSQTPAPSSEVVLDSKRQVEKEETNEIQVVNEEPQRDRLPQEPGREQVVEDRPVGGRGFGGAGELGQTPQVQAALSVSQENPEMEGPERDQLVIPDGQEEEQEAAGEGRNQQKLRGEDDYNMDENEAESETDKQAALAGNDRNIDVFNVEDQKRDTINLLDQREKRNHTL
As for B4, in test [4], the binding result was “binds”.
